Measured data: PubChem BioAssay AID720505 (Drosophila RNAi Screening Center, 2013)
Aim: 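Genes needed for store-operated calcium entry in fly cells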 (primary screen). Cells: Drosophila S2R+ cells. Knock-down reagent: long dsRNA against Drosophila genes. Challenge: thapsigargin (2 µM) in calcium-free buffer to empty internal stores, then 2 mM calcium added back. Read-out: 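Fluo-4 signal in 384-well plates read on a FLIPR after thapsigargin (2 µM, calcium-free) store depletion and 2 mM calcium add-back; unnormalised mean endpoint per well; screen run twice, selected wells retested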. Reading the numbers: calcium signal and retest calcium signal: higher = more calcium entry after store depletion. Active means: 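About 1500 genes called as lowering calcium entry, by varying amounts, judged against per-plate control wells with STIM1 as positive and Rho1 as negative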. Calls: active = called as lowering calcium entry; inactive = not called.
The screen tested about 20,000 reagents; below is a random part of those that have a named target and a result. Of all reagents, about 2,100 (10%) got an active call. 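Raw plate signals without normalisation; calls rest on control-based scores that were not deposited; replicate 2 separates called from uncalled poorly.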 Entries without a mark were called inactive. The record does not give: the amount of reagent, the time to read-out.

For SMSr (GeneID 38823) [DRSC10998], the entry reads calcium signal, replicate 1 = 133; calcium signal, replicate 2 = 123.
After knock-down of SMSr (GeneID 38823) [DRSC10999], the record shows calcium signal, replicate 1 = 123; calcium signal, replicate 2 = 68.2.
For Ir60e (GeneID 37917) [DRSC04227], the values are calcium signal, replicate 1 = 123; calcium signal, replicate 2 = 174.
Against Ibf1 (GeneID 41103) [DRSC16419], the values are calcium signal, replicate 1 = 92.6; calcium signal, replicate 2 = 147.
After knock-down of DCTN5-p25 (GeneID 34873) [DRSC03525] the results were calcium signal, replicate 1 = 83.8; calcium signal, replicate 2 = 84.3.
CG8950 (GeneID 36921) [DRSC07300] scored calcium signal, replicate 1 = 56.5 (active); calcium signal, replicate 2 = 126.
Silencing of PICK1 (GeneID 34677) [DRSC01268] came out at: calcium signal, replicate 1 = 131; calcium signal, replicate 2 = 92.1.
For PICK1 (GeneID 34677) [DRSC02936], the entry reads calcium signal, replicate 1 = 119; calcium signal, replicate 2 = 122.
After knock-down of Ercc1 (GeneID 36654) [DRSC07424], the record shows calcium signal, replicate 1 = 130; calcium signal, replicate 2 = 118.
Depletion of RpL36 (GeneID 31009) [DRSC18708] gave: calcium signal, replicate 1 = 53.6 (active); calcium signal, replicate 2 = 70.6.
With knock-down of CG6435 (GeneID 36894) [DRSC06987] the results were calcium signal, replicate 1 = 102; calcium signal, replicate 2 = 82.5.
With knock-down of CG13807 (GeneID 38290) [DRSC08342], the record shows calcium signal, replicate 1 = 55.2; calcium signal, replicate 2 = 99.8.
CG7755 (GeneID 36816) [DRSC07040] gave calcium signal, replicate 1 = 128; calcium signal, replicate 2 = 126.
After knock-down of CG11999 (GeneID 40637) [DRSC12185] the results were calcium signal, replicate 1 = 99.9; calcium signal, replicate 2 = 114.
With knock-down of RpL13A (GeneID 40687) [DRSC12265] the results were calcium signal, replicate 1 = 107; calcium signal, replicate 2 = 80.7.
Against BomS5 (GeneID 50207) [DRSC22306], the entry reads calcium signal, replicate 1 = 103; calcium signal, replicate 2 = 210.
For CG4935 (GeneID 34955) [DRSC01924], the entry reads calcium signal, replicate 1 = 97.3; calcium signal, replicate 2 = 85.9.
With knock-down of Dgk (GeneID 35738) [DRSC05064], the record shows calcium signal, replicate 1 = 158; calcium signal, replicate 2 = 162.
Dgk (GeneID 35738) [DRSC05065] gave calcium signal, replicate 1 = 155; calcium signal, replicate 2 = 103.
After knock-down of Dgk (GeneID 35738) [DRSC06171], the record shows calcium signal, replicate 1 = 144; calcium signal, replicate 2 = 152.
Silencing of Dgk (GeneID 35738) [DRSC06782] came out at: calcium signal, replicate 1 = 72.6; calcium signal, replicate 2 = 77.5; retest calcium signal, replicate 1 = 129; retest calcium signal, replicate 2 = 107.
Dgk (GeneID 35738) [DRSC22236] gave calcium signal, replicate 1 = 58.8 (active); calcium signal, replicate 2 = 117.

Sorted by “calcium signal, replicate 1” (lowest first): some entries from above
Dgk (GeneID 35738) [DRSC05065] — calcium signal, replicate 1 = 155; calcium signal, replicate 2 = 103
Dgk (GeneID 35738) [DRSC05064] — calcium signal, replicate 1 = 158; calcium signal, replicate 2 = 162
